{
  "source": "paper PMC12370185",
  "note": "The list shows a part of the results.",
  "data": [
    {"test_system": "SOX2 + histone octamer", "assay": "EMSA with sequencing", "conditions": "10 mM Tris-Cl pH 7.5, 50 mM NaCl, 1 mM DTT, 0.25 mg/ml BSA, 2 mM MgCl2, 0.025% Nonidet P-40, 5% glycerol; 28 nM nucleosome library; 10 min on ice then 30 min …; high values mean tight binding; double strand, one strand shown", "values": [
      {"sequence": "GATGGACCCTATACGCGGCCTACAATAATGATGTACAACATCCATCCTCACACTCAGGCAATAAGCTTTGTTTCTCATGCTCATGGGCAAGTGGTTCAGCTGAGTGGCTCTGCATCAGGCTGCAGTTGTTCAGTTGCCTGTAGTAGTTTGCAAGGGACTGAATGTGTCACCCCTCCCCCATTCATATGTTGAAAGCCTAACCTTCAATGTTGCCAGTCGGATAGTGTTCC", "binding signal (log2 relative supershift)": 0.966},
      {"sequence": "GATGGACCCTATACGCGGCTCCTCAAACCAGTGGCTTTGTTGGGTAGCACAAGGAGTTGGTCAAGAATATCAGCTGCCACACAGTCTTCAGTCCTGCTCATGAGCAGACAGGCGTACCACTTTTACTCAGATACCTAGCATTTCAATGCTCATTTAAATAATTCAGACTATACACATGTCTTAGCAGATTTTCCTCTTCCAGCCAACAATTGCCAGTCGGATAGTGTTCC", "binding signal (log2 relative supershift)": 1.14},
      {"sequence": "GATGGACCCTATACGCGGCCAAACTGATTTTGGGAAGCAGTCTAGAAAGATGCTTGAAAAATGTACTGATGTGTAATGCCAGCAGCAGGCCATTGTCATGGTATGGAATAATGGTGACTGAAAGTCATTCTCCCTTGCTTGGGATGATCTGTCTTAAGCATGAGCAGCTTGAGGCTGAATTGTAGACAATAAAACGTGAGTCCAATGACATGCCAGTCGGATAGTGTTCC", "binding signal (log2 relative supershift)": 0.975},
      {"sequence": "GATGGACCCTATACGCGGCCTCTGTCAGCCAGGCTGCCCTCCCTGCATTAGCCCTGTATCCAGGCTTCACTGCACATGGAAGCCCAGCCCCAACCCGCTGCCACTCCAGGTCAGTGGCAGGCCCTGCCCGGGGGACTGGGAGGTGGAGTCTATCAAGAGAGAGCTGGGTTGGGAGATGGATGTGCTGGGGGTGGCCTTGAAGACTTTGAATGCCAGTCGGATAGTGTTCC", "binding signal (log2 relative supershift)": 0.368},
      {"sequence": "GATGGACCCTATACGCGGCATGTGATAGTATTGGAATGCTATGATTGTTAATGTTGTGTCAACTTGAATGTGCCACAGGGTGCCCAGATTGAACATTATTTGGGGGTGTGTCTGTGAGGTTGTTCCCGATGAGATTAGCATTTGAATCAGTGGACTCAGAAAAGTTTCCCTCCCCATGTGAGTGGGCATCACCCAATCCATTGAAAGCCTTGCCAGTCGGATAGTGTTCC", "binding signal (log2 relative supershift)": 1.5},
      {"sequence": "GATGGACCCTATACGCGGCCTGTTTGGAAATTCATCATGGTAGAATGGAAAACACACATGCTCTGTAGTCAAGCACATCTAAGTGCCTCTTCCATCACTTACTGTCTGCATGACCATAAATCAGTCTGTCTGAGCCTCAGTTTTCTCATCCACCAAATGAAAGTAACACCTGACTCATGGAGTTTTCCTGCTGATGATATAATGAGATGATGCCAGTCGGATAGTGTTCC", "binding signal (log2 relative supershift)": 0.981},
      {"sequence": "GATGGACCCTATACGCGGCCAGGTCTCACTGTGCAAGGCAGGGATGCCCTGGGCTGTGGGAGCTGCCAGTGGGTGGGGCCTGCACACGTGGTCTGGGAGCAGTAACCCTGGAGACATCCTCTAGGCACGTGTGAGGCCTGGGAGACTCGGCAAGGAGGAGGGCTGAGAGCAGTGAAGTGTAGGGACAATGTATTAACAACAGGCTCAAACTGCCAGTCGGATAGTGTTCC", "binding signal (log2 relative supershift)": 0.793},
      {"sequence": "GATGGACCCTATACGCGGCAACCAGGGGGAGGGCATGGCACTTCCCAAGGCTATGCACCTGAATATGGGGTGTGTGTGTATGTGTGTGTGTGTGTGTGCACAGCTCAAGGCAATTCCACCCACAATTCAAGGAATATGGAGGCTGACAGACAAAGCTTGGATTTCAGATGTAAATAAAACTAGAGTTAATAAAAATGTTTACTGCAGTGCTGCCAGTCGGATAGTGTTCC", "binding signal (log2 relative supershift)": 0.348},
      {"sequence": "GATGGACCCTATACGCGGCATTAGGTTTCAATGAGACCATAAGGGTGAGGCCTGCTATGGTCTGAATGTTTGTGTTCCCCCCAAATTCATATGCTGAAACCCAGTCACTAGTATGGTGACAGTAGGAGGTGGGGTCTTTGGGAGATGATTAGGTCATGAGAGCAGAGAGCTCATGAATAGGACTGGTGCCCTTATAAAAGAGGCCTCAGATGCCAGTCGGATAGTGTTCC", "binding signal (log2 relative supershift)": 1.46},
      {"sequence": "GATGGACCCTATACGCGGCGTGTCCCTCTAGGGTGTGGCATAGTCTAACTGTCCTGCCAGAAGGGTCCAGGGTGTGGCTGGGTCTGAGCTAGTGGAGAACTGTGTGCATGCGATCAGGTGTGGGGACACAGTGCGTGTGTCCATGCATGCTCTTGTCAGAGAGAGGGTGATGGAGAGAGGAAGGAAGATCGAGAAAAACACAAAGACGTGTGCCAGTCGGATAGTGTTCC", "binding signal (log2 relative supershift)": 1.15},
      {"sequence": "GATGGACCCTATACGCGGCATTTGGGCATGGGTACTGATCTCATACATCAAACACACAAGTACATACATACAATGCACACACACAAACTCAGGAACACCTCCATGAATGCTGACCACATGCACTTGCATATGCAAGCATCAGGCATGCGCACACCCCCACCACCACATTCATGTGCATATGCAGACATGCACATACATGTGCACCTCCATTGCCAGTCGGATAGTGTTCC", "binding signal (log2 relative supershift)": 0.362},
      {"sequence": "GATGGACCCTATACGCGGCGTTTTTGTTGTTGGACTAAGATTGTATGTGACAGTGTTTGAGATTGTGCATGACAGTGTGTGTGATTATGTGAGACTGAGGGAGATGGTGTGACTTAGCACTGTATGTCATCCCGACAGTGAGTGTGACAGTGTGACTGAGAATGGCCTTATATGACCCATTGTGAGAGCAGGGCGGGCTACAATGTGGGGTGCCAGTCGGATAGTGTTCC", "binding signal (log2 relative supershift)": 1.85},
      {"sequence": "GATGGACCCTATACGCGGCGCCTGATCTATGTGCCCCACGCTTGGCAATGGGACTGGATTGGAGGCAGAGGATATGCATCTGAAAGTCAAGATACTTGCCAAGAGGAGAGGGAGAGGTGTTGGTGATGCAACCAGAATATCCATTACAGTAAACCAATTGTCAGAGCTACAAACTCTTCGTTTAATAGTCTTCCTATAGTCTCAGTCTTGTGCCAGTCGGATAGTGTTCC", "binding signal (log2 relative supershift)": 0.498},
      {"sequence": "GATGGACCCTATACGCGGCGCGGAAACCACCTCGACAGCCTCCAGAAAGGGGCGTGGCTGAAAATGTAGGGGCGTGGCCACGTGGGCATCAGGAAGAAGTAACCTGTTGAATCTATTTCTGCTCCCCACCCTTACTGCTTCCCATAAGGGGGAAGCCGCAGACTAATAAGCCTCTTCCAAAAAAGAGGTAAAGGGAGGTAGACAAGGGGCTGCCAGTCGGATAGTGTTCC", "binding signal (log2 relative supershift)": 0.415},
      {"sequence": "GATGGACCCTATACGCGGCCACGCTCATTTGTCTGGAGAAAACACTGAGACCTGGAGCATGTGTGTACATGCTCACCATACAGCCCGCCCCCGATGATTGTCAGGAGAGTCAGCTGATCTGAGAAAGTGACAAGCATTGGTCATTTCAGAGAAACCGGGAGTTGGGCTTTTTAAAAGAGGCATAAAGAAACTGGGAAAATGAGACTGAGTTGCCAGTCGGATAGTGTTCC", "binding signal (log2 relative supershift)": 0.753},
      {"sequence": "GATGGACCCTATACGCGGCTAAATAAAACTGAGGTTATATAGTCATGCATTTAATAATAGTGATAGATGCAGGAGGCATGCAGATGCAGATAAGGAAACCTGCACAGGGTCTTGCCCGGGCGTGCCTGCAAGGGACTGGGGCCCACATGTGCACTAGGAGAAGGGGGTGGAGCCACCAAGAATTCATGCCTTATGCAGGGGAGGAGACTGTGCCAGTCGGATAGTGTTCC", "binding signal (log2 relative supershift)": 0.521},
      {"sequence": "GATGGACCCTATACGCGGCCTAGAGCTGGTGGAGAGTCGGGAGAGGCAGCTGATCGGGCAGATAAGAGCAGATCATGTTGAGTCTTGTGCAGTTTGCGCAGAAGTTTGGATGTAACTCTGTAAGCATTAGAGAAATGTCATCTGGCAGCATTCATAGAAGCTATCACAAGAGGACCAGACAGAAGTCTGGTTTGAAACCAAGGCAACAACTGCCAGTCGGATAGTGTTCC", "binding signal (log2 relative supershift)": 0.561},
      {"sequence": "GATGGACCCTATACGCGGCATAAGAAAGACAGGACAGCCCTCCAAACCAGGACGTCATGGAGAGGTCAGCCCACCCAAAGAAGATGCAGCACATGCAGGGTGTGGAGAGGGAAGTTCACGGGTGACGGGAGACACTGCCCTACGCCGCTAAATCCCTGCAGCCTCCTCCCCCTCATCCCTGTAAAAGTGAGTCAGAAGAGCTCACTTGTCTGCCAGTCGGATAGTGTTCC", "binding signal (log2 relative supershift)": 0.436},
      {"sequence": "GATGGACCCTATACGCGGCATGTCTCTTTTTTCAAAAAGCAGCTGACCACCCATTTCCTGGCCCCACCCCTCCCACATTCTTCCAGCACATGCTCCTGTCTCCCTTGTAGTGCTGAGCACTGCTGTGACTGTACAGGGGTTGGGCCCTGCTTTTGATTAGTGCCTGTTTCTTATTGTGAGTTCCAAGAGGACATGTTCCTTTTACTCTGTTGCCAGTCGGATAGTGTTCC", "binding signal (log2 relative supershift)": 0.316},
      {"sequence": "GATGGACCCTATACGCGGCTTCACAGTACTACTCCCTACCTGACTGTCTCAGCATATGAATGCAAACTGCAGAAGGGTAGAAACTTGCTATTTACTGCAGTAGCCTCTGGCCCTAGGATACTTGCCTAACACTGCATGGATGTAATTGTCAGCCAGTCAATTGCATGGAATTTTGCTGAAAGTACAACTTTTGTCATTGCTTAGGAGAAGTGCCAGTCGGATAGTGTTCC", "binding signal (log2 relative supershift)": 0.923},
      {"sequence": "GATGGACCCTATACGCGGCTTTGTGTGGATGTGGTTGGTCAGAAGGCTTTGTGTGCACTGTGACATCTTTATGCTGCAGATGCCAAGATCACAGGGTCCACACAGAGCAGTTCATTTCACACAGTGGGAAATGATGCGTGTGTGTGTGTGGGTGGGTGTGTGTGTGTGTTTTAAAAAACCTAAACAGAGCAACACTGTTCTGTGCACTCATGCCAGTCGGATAGTGTTCC", "binding signal (log2 relative supershift)": 1.84},
      {"sequence": "GATGGACCCTATACGCGGCAGCCTGTCTGCAATTCTGCATCCACGTGCCTGCATGGTAATAACTGGCAGGAGCTGCACATGAGCTGCCTTTTGAGAAAGGGTCACACGCCCTTGAGTTCACTAGGTCCCCACCCAGCTGCTGTCTTACTCATCAACCTTTCCAACCAGGCCCTTGTTTGTTACCCTTGCGGCGGGGGAGGGGGGCGAAAATGCCAGTCGGATAGTGTTCC", "binding signal (log2 relative supershift)": 0.671},
      {"sequence": "GATGGACCCTATACGCGGCAGGGGGACAATGTCAAAGGCACATGGAAGCTCCCCTTTTATTATTAGCTGGGTGTGTGCCCAGCTCCTCCCAAACAGAACAGGGCTGGGACTCGAGGTGGAGGCTGAGGCTTAACCCCCTCCCTGGTGCCATTGTCCTGCAGACAGCCAGAGGGAGGAGGCACCAGCCCAAGGGAGGAGGTATTAGCCCTCTGCCAGTCGGATAGTGTTCC", "binding signal (log2 relative supershift)": 1.81},
      {"sequence": "GATGGACCCTATACGCGGCACAAGAAAGTAATCCACGGAAGGAACAAGAAGTGTCCTAAACAGTAGCAAACCTTACACATCAGGACAATCACACAGGCTCTGGTGTCAGATTCCAGCTTCAACCTCATCGGTGTGACCTCAAGCAACTCATGCGCCCTCTTTTTCTCATGTGAAGTGAGAATATCATTGGCCACACCAAGGGTAGCCTAGTGCCAGTCGGATAGTGTTCC", "binding signal (log2 relative supershift)": 0.0503}
    ]}
  ]
}
